# Laboratory results reported in paper PMC9769732.
# No constants are given. Whether binding was seen depends on the method and setting. In cells and extracts the contact can be indirect. Binding calls can cover weak binding; strength is not graded here. Tags and fused reporters may be left off the sequences shown.
# Biological target: Flag-TBK1 N-terminal kinase domain (KD)
# Experiment: co-IP
binder,measurement,value
"V5-tagged scavenger receptor A (SRA) (receptor, UniProt P21757 1-451) MEQWDHFHNQQEDTDSCSESVKFDARSMTALLPPNPKNSPSLQEKLKSFKAALIALYLLVFAVLIPLIGIVAAQLLKWETKNCSVSSTNANDITQSLTGKGNDSEEEMRFQEVFMEHMSNMEKRIQHILDMEANLMDTEHFQNFSMTTDQRFNDILLQLSTLFSSVQGHGNAIDEISKSLISLNTTLLDLQLNIENLNGKIQENTFKQQEEISKLEERVYNVSAEIMAMKEEQVHLEQEIKGEVKVLNNITNDLRLKDWEHSQTLRNITLIQGPPGPPGEKGDRGPTGESGPRGFPGPIGPPGLKGDRGAIGFPGSRGLPGYAGRPGNSGPKGQKGEKGSGNTLTPFTKVRLVGGSGPHEGRVEILHSGQWGTICDDRWEVRVGQVVCRSLGYPGVQAVHKAAHFGQGTGPIWLNEVFCFGRESSIEECKIRQWGTRACSHSEDAGVTCTL",binding,binds
